Reference: patent US20180243435A1 (AbbVie / Abbott, published 2018)
Substitutions are numbered along the chain they refer to. No constants are given. Whether binding was seen depends on the method and setting. Some results given as binding are weak or reduced against the parent protein; the word gives no strength.

Protein sequences, listed by entry. Tags and fused reporters are not part of them. Lines headed by an entry give the natural chain unless they say otherwise; changes in a name come on top.
UniProt Q9NYJ7: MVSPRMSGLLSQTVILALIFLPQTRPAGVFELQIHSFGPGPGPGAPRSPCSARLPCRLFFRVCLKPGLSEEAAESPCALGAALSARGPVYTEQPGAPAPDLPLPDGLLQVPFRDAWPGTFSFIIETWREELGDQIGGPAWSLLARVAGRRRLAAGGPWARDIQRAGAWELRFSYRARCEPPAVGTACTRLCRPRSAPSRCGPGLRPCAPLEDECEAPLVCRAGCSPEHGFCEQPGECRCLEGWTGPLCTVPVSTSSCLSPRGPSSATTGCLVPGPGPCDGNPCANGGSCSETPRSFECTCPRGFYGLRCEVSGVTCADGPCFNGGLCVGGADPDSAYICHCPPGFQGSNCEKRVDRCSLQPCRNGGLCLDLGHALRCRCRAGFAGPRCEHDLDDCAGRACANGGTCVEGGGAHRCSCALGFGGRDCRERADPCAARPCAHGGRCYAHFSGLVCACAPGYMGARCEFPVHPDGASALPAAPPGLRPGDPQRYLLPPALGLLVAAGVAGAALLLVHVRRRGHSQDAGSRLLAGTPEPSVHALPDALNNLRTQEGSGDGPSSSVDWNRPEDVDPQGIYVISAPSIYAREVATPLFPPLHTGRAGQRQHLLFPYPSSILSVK

B1: SC16.3 (antibody, V domains shown)
VH: QVTLKESGPGILQPSQTLSLTCSFSGFSLSTSGMGVGWIRQPSGKGLEWLAHIWWDDVKRYNPALKSRLTISKDTSSSQVFLKIASVDTADTATYYCARIADYGGDYYAMDYWGQGTSVTVSS
VL: QIVLTQSPAIMSVSLGERVTMTCTASSSVSSSYLHWYQQKPGSSPKLWIYSTSNLASGVPARFSGSGSGTSYFFTISSMEAEDAATYYCHQYHRSPFTFGAGTKLKIR
B2: SC16.18 (antibody, V domains shown)
VH: EVKLEESGGGLVQPGESMKLSCAASGFTFSDAWMDWVRQSPEKGLEWVAEIRNKANNHATYYAESVKGKFTISRDDSKSRVYLQMNNLRAADTGIYYCTAYSNFAYWGQGTLVTVST
VL: DIQMTQTTSSLSASLGDRVTISCRASQNIINYLNWYQQKPDGTVKLLIYYTSRLHSGVPSRFSGSGSGTDYSLTISNLEPEDIATYYCQQYSERPYTFGGGTKLEIK
B3: SC16.19 (antibody, V domains shown)
VH: EVQLQQSGAELVRPGASVKLSCTASGFNIKDSLLHWVKQRPEKGLEWIGWIDPEDGETKYAPNFQDKATITTDSSSNTAYLQLISLTSVDTAIYYCAYGNYVRHFDYWGQGTTLTVSS
VL: DIQMTQSPSSLSASLGGKVTFTCKASQDIHKYVAWYQHKPGKGPRLLIHYTSTLQPGISSRFSGSGSGRDYSFSISNLEPEDIATYYCLQYNNLYTFGGGTKLEIK
B4: SC16.20 (antibody, V domains shown)
VH: QVQLQQSGTELVRPGTSVRVSCKASGYAFGNHLIEWVKQRPGQGLEWIGVINPGTGGTHYNEKFKDKARLTADKSSNTAYMHLNSLTSDDSAVYFCARSPYDYHEGAMDYWGQGTSVTVSS
VL: EIQMTQSPSSMSASLGDRITITCQATQDIVKNLNWYQQKPGKPPSFLIYYATELAEGVPSRFSGSGSGSDYSLTIRNLESEDFADHYCLQFYEFPFTFGAGTKLELK
B5: SC16.21 (antibody, V domains shown)
VH: QVQLQQSGPELVKPGASVKISCKASGYAFSSSWMNWVKQRPGKGLEWIGRIYPGDGDTNYNGKFKGKATLTADKSSSTAYMQLSSLTSEDSAVYFCAMGIYNYDGSRYYSMDYWGQGTSVTVSS
VL: DIVMTQSPSSLAMSVGQKVTMSCKSSQSLLNSSNQKNYLAWYQQEPGQSPKLLVSFASTRESGVPDRFTGSGSGTDFTLTISGVQAEDLAVYYCQQHYSIPLTFGAGTKLELK
B6: SC16.22 (antibody, V domains shown)
VH: QVQLQQPGAELVKPGASVKLSCKASGYTFTTYWMHWVKQRPGQGLEWIGEIDPSDSYTYYNQKFKGKATLTVDKSSSTAYMQLSSLTSEDSAVYYCARGDYGNPYAMDYWGQGSSVTVSS
VL: DIQMTQTTSSLSASLGDRVTISCRASQDIKNYLNWYQQKPDGTVKPLIYYTSRVHSGVPSRFSGSGSGTDYSLTISNLEQEDIATYFCQQGYTLPFTFGSGTKLEIK
B7: SC16.23 (antibody, V domains shown)
VH: QVTLKESGPGILQPSQTLSLTCSFSGFSLSTSNTGIGWIRQPSGTGLEWLAHIWWNDDKYYNPSLKSRLTISKETSNNQVFLKITNVDTADTASYFCVQIGRDYSNYAWYFDVWGAGTTVTVSS
VL: QIVLTQSPAIMSASPGEKVTLTCSASSSVSSRYLYWYQQKPGSSPKLWIYSTSNLASGVPARFSGSGSGTSYSLIISSMEAEDAASYFCHQWSNYPLTFGAGTKLELK
notes: murine hybridoma mAb
B8: SC16.25 (antibody, V domains shown)
VH: QVTLKESGPGILQPSQTLSLTCSFSGFSLSTSGMGVGWIRQPSGEGLEWLTDIWWDDNKYYNPSLKSRLTISKDTSSNQVFLNITSVDTADTATYYCARRVNYYYDPYYAMDYWGQGTSVTVSS
VL: QIVLTQSPAIMSASPGEKVTMTCSASSSVSYMHWYQQKSGTSPKRWIYDSSKLASGVPARFSGSGSGTSYSLTISSMEAEDAATYYCQQWSSNPLTFGAGTKLELK
B9: SC16.29 (antibody, V domains shown)
VH: QVQLQQSGAELARPGASVKLSCKASGYTFTDQYINWVKQRTGQGLEWIGEIYPGRGNTYYNEKFKGKATLTADKSSSTAYMQLSSLTSEDSAVYFCAREDGGYDDAWFAYWGQGTLVTVSA
VL: QIVLTQSPAIMSASPGEKVTITCSASSSVSYMHWFQQKPGTSPKLWIYTTSNLASGVPARFSGSGSGTSYSLTVSRMEAEDAATYYCQQRSLYPYTFGGGTKVEIK
B10: SC16.30 (antibody, V domains shown)
VH: QVTLKESGPGILQPSQTLSLTCSFSGFSLSTSGMGVGWIRQPSGKGLEWLAHIWWDDVKRYKPALKSRLTVSKDTSSNQVFLKIATVDAADTGTYYCARIVDGHPPFAYWGQGTLVTVSA
VL: B1 VL with A9T, V13A, S30T, F73S, F74L, Y92F, A101S, K106E, R108K
B11: SC16.4 (antibody, V domains shown)
VH: QIQLVQSGPELKKPGETVKISCKASGYTFTDYSMHWVKQAPGKGLKWMGWINTETGEPGYADDFKGRFAFSLETSASTAYLQINNLKNEDTATYFCARYDGYAMDYWGQGTSVTVSS
VL: B6 VL with K30S, P46L, V54L, Q80L, Y92D, T93M, F96W, S100G
B12: SC16.31 (antibody, V domains shown)
VH: EVQLQQSGPELVKPGASVKISCKASGYSFSRFYMHWVKQSPENSLEWIGEINPSTGGTSYNQKFKGKATLTVDKSSSTAYMQLKSLTSEESAVYYCTRGYGSNWYFDVWGAGTTVTVST
VL: DIVLTQSPLSLPVNIGDQASISCKSTKSLLNSDGFTYLDWYLQRPGQSPQFLIYLVSNRFSGVPDRFSGSGSGTDFTLKISRVEAEDLGVYYCFQSNYLPLTFGAGTKLELR
B13: SC16.34 (antibody, V domains shown)
VH: QIQLVQSGPELKRPGETVKISCKASGYTFTNYGMNWVKQAPGKGLKWMGWINTYTGDPTYADDFKGRFAFSLETSASTAYLQINNLKNEDTATYFCARIGGNSPSDYWGQGTSLTVSS
VL: SIVMTQTPKFLLVSAGDRVTITCKASQSVSNDVAWYQQKPGQSPKLLIYYASNRYSGVPDRFTGSGYGTDFTFTISTVQAEDLAVYFCQQDYSSPWTFGGGTKLEIK
notes: murine hybridoma mAb
B14: SC16.35 (antibody, V domains shown)
VH: DVQLQESGPGLVKPSQSLSLTCTVTGYSITSDYAWNWIRQFPGNKLEWMGYISYSGSTSYNPSLKSRISITRDTSKNQFFLQLNSVTTEDTATYYCARFYYGSSYAMDYWGQGTSVTVSS
VL: B6 VL with K30S, P46L, V54L, Y92N, F96Y, S100G
B15: SC16.38 (antibody, V domains shown)
VH: EVQLQQSGAELVKPGASVKLSCTVSGFNIKDTYIHWVKQRPEQGLEWIGRIDPANGNTKYDPKFQGKATITADTSSNTAYLQLSSLTSEDTAVYYCARPTGYFEYWGQGTTLTVSS
VL: QIVLTQSPAIMSASPGEKVTMTCSASSSINYMHWYQQKPGTSPKRWIYDTSKLASGVPARFSGSGSGTSYSLTISSMEAEDAATYYCHQRSTWTFGGGTKLEIK
B16: SC16.41 (antibody, V domains shown)
VH: B2 VH with P14F, E16G, A63P, K69R, A91E, A100G, N103S, T117A
VL: B2 VL with N28D, I29V, G68R
B17: SC16.42 (antibody, V domains shown)
VH: QIQLVQSGPELKKPGETVKISCKASGYTFTTAGMQWVQKMPGKGFKWIGWINTHSGEPKYADDFKGRFAFSLETSASTAYLQISNLKDEDTATFFCAPLWSDSSFAYWGQGTLVTVSA
VL: DVLMTQSPLSLSVSLGDQASISCRSSQNIVHSDRYTYLEWYLQKPGQSPKLLIYGVSNRFSGVPDRFSGSGSGTDFTLKISRVEAEDMGVYYCFQGTHVPYTFGGGTKLEIK
B18: SC16.45 (antibody, V domains shown)
VH: QVQLQQSGADLVRPGTSVKVSCKASGYSFTNYLIEWVKQRPGQGLEWIGVINPGSGGTHYNEKFKDKAVLTADKSSTTAHMQLSSLTSDDSAVYFCARSPYDYNDGAMDYWGQGTSVTVSS
VL: B4 VL with S60A, R76S, H86Y, Y87H
B19: SC16.47 (antibody, V domains shown)
VH: B12 VH with W104C
VL: B12 VL with I2V
B20: SC16.49 (antibody, V domains shown)
VH: QVQLQQSGPELVKPGTLVKISCKASGYTFTSYDINWVKQRPGQGLEWIGWIYPGDGNTKYSEKFKGKATLTADKSSSTAYMQLTSLTSENSAVYFCARDYDYPFAYWGQGTLVTVSA
VL: DIKMTQSPSSMYASLGERVTITCKASQDINSYLSWFQQKPGKSPKTLIYRANRLVDGVPSRFSGSGSGQDYSLTITSLEYEDMGIYYCLQYDEFPLTFGAGTKLELK
B21: SC16.5 (antibody, V domains shown)
VH: B8 VH with T51A, N83K, Y104V
VL: B8 VL with S50T, S91T, S92R
B22: SC16.52 (antibody, V domains shown)
VH: QVQLKESGPGLVAPSQSLSITCAVSGFSLTSFAIHWFRKPPGKGLEWLGVIWTGGTTNYNSALMSRLSISKDNSKSQVFLKMNSLQTDDTAMYYCARDDYDNNYAMDYWGQGTSVTVSS
VL: DIQMIQSPSSMFASLGDRVSLSCRASQGIRGTLDWYQQKPNGTIKLLIYSTSNLNSGVPSRFSGSGSGSDYSLTISSLESEDFADYYCLQRNAYPLTFGAGTKLELK

Target: human DLL3 (human) (UniProt Q9NYJ7)
Experiment: hybridoma screening: ELISA on immobilized DLL3 or flow cytometry on HEK-293T cells overexpressing hDLL3

binding, binds:
B1
B2
B3
B4
B5
B6
B7
B8
B9
B10
B11
B12
B13
B14
B15
B16
B17
B18
B19
B20
B21
B22
